Assay results from PubChem BioAssay AID376 (PDSP, 2006).
Most of the hits are listed elsewhere, so they are rarer here than in the full data. The source made the active and inactive calls. Rule as the data show it: active = hERG blockade below about -20% or above about 20%; inactive = in between.

The chains behind the UniProt entries cited, without tags or fusion partners. Where a name states a change or a piece, a line headed by the entry shows the natural chain unless it says otherwise.
UniProt Q12809: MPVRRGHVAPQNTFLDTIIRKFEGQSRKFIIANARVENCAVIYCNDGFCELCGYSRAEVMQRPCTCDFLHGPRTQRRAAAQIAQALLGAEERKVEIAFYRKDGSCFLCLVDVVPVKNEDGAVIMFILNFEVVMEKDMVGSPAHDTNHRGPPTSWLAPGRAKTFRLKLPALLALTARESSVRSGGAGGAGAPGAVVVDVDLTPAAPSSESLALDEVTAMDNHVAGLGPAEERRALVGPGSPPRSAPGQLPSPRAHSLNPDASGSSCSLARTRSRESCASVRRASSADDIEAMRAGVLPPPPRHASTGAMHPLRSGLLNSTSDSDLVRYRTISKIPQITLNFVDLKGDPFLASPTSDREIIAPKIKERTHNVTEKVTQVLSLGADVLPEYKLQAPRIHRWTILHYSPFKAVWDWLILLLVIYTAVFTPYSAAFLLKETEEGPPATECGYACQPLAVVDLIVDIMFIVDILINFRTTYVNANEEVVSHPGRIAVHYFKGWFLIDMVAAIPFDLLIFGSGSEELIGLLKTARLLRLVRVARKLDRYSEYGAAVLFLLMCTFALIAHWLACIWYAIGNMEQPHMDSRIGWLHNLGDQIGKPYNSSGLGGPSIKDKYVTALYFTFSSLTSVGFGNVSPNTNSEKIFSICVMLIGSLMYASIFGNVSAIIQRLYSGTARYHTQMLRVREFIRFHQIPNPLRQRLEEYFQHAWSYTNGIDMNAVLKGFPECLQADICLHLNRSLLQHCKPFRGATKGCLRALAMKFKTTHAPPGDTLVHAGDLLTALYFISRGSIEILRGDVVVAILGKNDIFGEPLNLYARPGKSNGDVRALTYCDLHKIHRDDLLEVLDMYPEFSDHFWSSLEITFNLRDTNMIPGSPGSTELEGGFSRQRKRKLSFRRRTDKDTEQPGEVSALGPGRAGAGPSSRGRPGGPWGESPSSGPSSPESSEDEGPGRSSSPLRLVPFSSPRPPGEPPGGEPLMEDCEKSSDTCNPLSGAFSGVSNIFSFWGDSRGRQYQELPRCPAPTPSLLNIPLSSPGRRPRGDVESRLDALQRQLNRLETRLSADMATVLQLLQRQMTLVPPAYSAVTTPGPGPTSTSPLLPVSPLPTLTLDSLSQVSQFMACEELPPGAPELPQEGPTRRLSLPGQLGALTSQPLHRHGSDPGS

Target: Voltage-gated inwardly rectifying potassium channel KCNH2 (Homo sapiens) (UniProt Q12809)
Test: KCNH2 potassium channel function modulators, cell-based (AID 376);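 also: 0% = buffer alone and 100% = reference blocker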
Details: hERG-expressing cells, channel activity single-concentration screen; concentration not given here

SMILES | hERG blockade
CN1C2CCC1CC(OC(=O)C(O)c1ccccc1)C2 (stereo unspecified) | inactive: -16.6%
